Results deposited as PubChem BioAssay AID743121 (NCATS, 2013).
This is an unselected part of about 26,000 reagents tested. 167 of all reagents (0.63%) count as active. 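Calls are per gene from RSA p-values that are not deposited; an individual active-marked siRNA can sensitise only weakly.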 Reagent sequences are not shown.

Aim: 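Genes whose silencing strengthens cell killing by camptothecin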 (primary screen)
System: MDA-MB-231 cells, a human breast cancer line
Reagent: single siRNA against human genes, 20 nM siRNA (0.8 pmol per well)
Timing: 120 h (drug added 48 h after transfection, read 72 h later)
Treatment: camptothecin 20 nM (about EC30) for 72 h; vehicle 0.1% DMSO in parallel plates
Read-out: 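CellTiter-Glo ATP signal, scaled to control siRNA as percent viability; sensitisation given as log2 of untreated divided by camptothecin-treated viability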
Reading the numbers: log2 vehicle/camptothecin viability: higher = stronger sensitisation to camptothecin; viability with camptothecin and viability without drug: higher = more viable cells
Hit rule: 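Each gene scored by redundant siRNA activity (RSA) over its individual siRNA ratios; a gene is called active at p < 0.001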

| Target gene | PubChem SID | log2 vehicle/camptothecin viability | viability with camptothecin (% of control) | viability without drug (% of control) | Outcome |
| --- | --- | --- | --- | --- | --- |
| ITGA2B (GeneID 3674) | SID164371911 | -0.0995 | 46.1 | 43 | inactive |
| ITGA2B (GeneID 3674) | SID164371915 | -0.0928 | 75.7 | 71 | inactive |
| ITGA2B (GeneID 3674) | SID164371917 | 0.995 | 38.8 | 77.3 | inactive |
| AMMECR1 (GeneID 9949) | SID164407639 | 0.388 | 62.9 | 82.3 | inactive |
| AMMECR1 (GeneID 9949) | SID164407646 | 0.0837 | 104 | 110 | inactive |
| AMMECR1 (GeneID 9949) | SID164407647 | 0.451 | 70.8 | 96.9 | inactive |
| ZRANB1 (GeneID 54764) | SID164480350 | -0.0031 | 98.8 | 98.6 | inactive |
| ZRANB1 (GeneID 54764) | SID164480351 | -0.154 | 81.7 | 73.4 | inactive |
| ZRANB1 (GeneID 54764) | SID164480352 | 0.154 | 78.2 | 87 | inactive |
| ZRANB1 (GeneID 54764) | SID164480353 | -0.141 | 90.2 | 81.8 | inactive |
| EPHB3 (GeneID 2049) | SID164363502 | -0.1 | 97.4 | 90.9 | inactive |
| EPHB3 (GeneID 2049) | SID164363503 | -0.407 | 117 | 88.1 | inactive |
| EPHB3 (GeneID 2049) | SID164363505 | -0.011 | 90.3 | 89.6 | inactive |
| EPHB3 (GeneID 2049) | SID164363509 | -0.355 | 47.5 | 37.1 | inactive |
| FBXO36 (GeneID 130888) | SID164569491 | -0.157 | 65.2 | 58.5 | inactive |
| FBXO36 (GeneID 130888) | SID164569492 | -0.00368 | 82.6 | 82.4 | inactive |
| FBXO36 (GeneID 130888) | SID164569493 | -0.272 | 124 | 103 | inactive |
| FBXO36 (GeneID 130888) | SID164569494 | -0.264 | 76 | 63.3 | inactive |
| DOT1L (GeneID 84444) | SID164544942 | -0.0484 | 122 | 118 | inactive |
| DOT1L (GeneID 84444) | SID164544943 | -0.0501 | 88.1 | 85.1 | inactive |
| DOT1L (GeneID 84444) | SID164544946 | 0.0351 | 94.3 | 96.6 | inactive |
| DOT1L (GeneID 84444) | SID164544947 | -0.352 | 51.3 | 40.2 | inactive |
| TNFSF10 (GeneID 8743) | SID164399593 | -0.998 | 92.5 | 46.3 | inactive |
| TNFSF10 (GeneID 8743) | SID164399597 | -0.0939 | 109 | 102 | inactive |
| TNFSF10 (GeneID 8743) | SID164399598 | -0.0141 | 91.5 | 90.6 | inactive |
| TNFSF10 (GeneID 8743) | SID164399599 | -0.252 | 72.8 | 61.1 | inactive |
| PRPH2 (GeneID 5961) | SID164385000 | -0.147 | 69 | 62.3 | inactive |
| PRPH2 (GeneID 5961) | SID164385001 | 0.264 | 25.4 | 30.5 | inactive |
| PRPH2 (GeneID 5961) | SID164385003 | -0.0678 | 120 | 114 | inactive |
| PRPH2 (GeneID 5961) | SID164385004 | -0.128 | 82.1 | 75.1 | inactive |
| ALOX5 (GeneID 240) | SID164353080 | -0.295 | 71.4 | 58.2 | inactive |
| ALOX5 (GeneID 240) | SID164353083 | -0.0882 | 56.8 | 53.4 | inactive |
| ALOX5 (GeneID 240) | SID164353085 | -0.0571 | 72.3 | 69.5 | inactive |
| KIF5B (GeneID 3799) | SID164372668 | -0.404 | 102 | 77.4 | inactive |
| KIF5B (GeneID 3799) | SID164372669 | -0.168 | 73 | 65 | inactive |
| KIF5B (GeneID 3799) | SID164372675 | -0.207 | 117 | 101 | inactive |
| TNFSF18 (GeneID 8995) | SID164401070 | 0.0119 | 89.1 | 89.9 | inactive |
| TNFSF18 (GeneID 8995) | SID164401071 | -0.147 | 53.9 | 48.6 | inactive |
| TNFSF18 (GeneID 8995) | SID164401072 | 0.138 | 81.4 | 89.5 | inactive |
| TNFSF18 (GeneID 8995) | SID164401075 | -0.359 | 103 | 80.2 | inactive |
| TMEM147 (GeneID 10430) | SID164410942 | -0.329 | 79 | 62.9 | inactive |
| TMEM147 (GeneID 10430) | SID164410943 | -0.0806 | 56.8 | 53.7 | inactive |
| TMEM147 (GeneID 10430) | SID164410946 | -0.56 | 117 | 79.7 | inactive |
| TMEM147 (GeneID 10430) | SID174315936 | -0.287 | 110 | 89.9 | inactive |
| HTR3A (GeneID 3359) | SID164370439 | 0.187 | 51.7 | 58.8 | inactive |
| HTR3A (GeneID 3359) | SID164370441 | 0.225 | 79 | 92.3 | inactive |
| HTR3A (GeneID 3359) | SID164370442 | -0.313 | 77.4 | 62.3 | inactive |
| HTR3A (GeneID 3359) | SID164370445 | -0.0337 | 44.4 | 43.4 | inactive |
| GAB1 (GeneID 2549) | SID164365650 | -0.603 | 47.9 | 31.5 | inactive |
| GAB1 (GeneID 2549) | SID164365651 | -0.0149 | 76.1 | 75.4 | inactive |
| GAB1 (GeneID 2549) | SID164365653 | 0.156 | 80.9 | 90.2 | inactive |
| KIF13A (GeneID 63971) | SID164500518 | 0.039 | 98.1 | 101 | inactive |
| KIF13A (GeneID 63971) | SID164500519 | -0.267 | 74.8 | 62.1 | inactive |
| KIF13A (GeneID 63971) | SID164500521 | 0.0783 | 84.5 | 89.3 | inactive |
| KCNA7 (GeneID 3743) | SID164372312 | -0.091 | 35.5 | 33.3 | inactive |
| KCNA7 (GeneID 3743) | SID164372314 | 0.0829 | 63.9 | 67.7 | inactive |
| KCNA7 (GeneID 3743) | SID164372315 | -0.324 | 58.6 | 46.8 | inactive |
| KCNA7 (GeneID 3743) | SID164372317 | -0.63 | 104 | 67.4 | inactive |
| MEX3B (GeneID 84206) | SID164543571 | 0.446 | 70.2 | 95.7 | inactive |
| MEX3B (GeneID 84206) | SID164543574 | -0.186 | 81.5 | 71.7 | inactive |
| MEX3B (GeneID 84206) | SID164543575 | -0.0545 | 107 | 103 | inactive |
| MEX3B (GeneID 84206) | SID164543576 | 0.00869 | 91.1 | 91.7 | inactive |
| ANGPT2 (GeneID 285) | SID164353349 | -0.449 | 114 | 83.2 | inactive |
| ANGPT2 (GeneID 285) | SID164353350 | 0.429 | 51.4 | 69.2 | inactive |
| ANGPT2 (GeneID 285) | SID164353352 | -0.418 | 90 | 67.4 | inactive |
| MOCS3 (GeneID 27304) | SID164463513 | -0.122 | 111 | 102 | inactive |
| MOCS3 (GeneID 27304) | SID164463515 | 0.352 | 43.6 | 55.7 | inactive |
| MOCS3 (GeneID 27304) | SID164463516 | -0.0616 | 126 | 121 | inactive |
| LPXN (GeneID 9404) | SID164403572 | -0.218 | 97.1 | 83.5 | inactive |
| LPXN (GeneID 9404) | SID164403573 | 0.213 | 41.9 | 48.6 | inactive |
| LPXN (GeneID 9404) | SID164403574 | -0.466 | 65.5 | 47.4 | inactive |
| LPXN (GeneID 9404) | SID164403576 | -0.167 | 67.6 | 60.2 | inactive |
| CLPP (GeneID 8192) | SID164396447 | -0.679 | 46.5 | 29.1 | inactive |
| CLPP (GeneID 8192) | SID164396448 | 0.509 | 9.16 | 13 | inactive |
| CLPP (GeneID 8192) | SID164396449 | -0.185 | 73.3 | 64.5 | inactive |
| CLPP (GeneID 8192) | SID164396450 | -0.399 | 89 | 67.5 | inactive |
| GPR25 (GeneID 2848) | SID164367375 | -0.449 | 103 | 75.7 | inactive |
| GPR25 (GeneID 2848) | SID164367376 | -0.317 | 131 | 105 | inactive |
| GPR25 (GeneID 2848) | SID164367377 | 0.464 | 58.9 | 81.2 | inactive |
| GPR25 (GeneID 2848) | SID164367378 | 0.0751 | 56.4 | 59.4 | inactive |
| CRAT (GeneID 1384) | SID164359655 | 0.748 | 25.3 | 42.5 | inactive |
| CRAT (GeneID 1384) | SID164359656 | -0.19 | 53.5 | 46.9 | inactive |
| CRAT (GeneID 1384) | SID164359657 | -0.236 | 44.4 | 37.7 | inactive |
| CRAT (GeneID 1384) | SID164359658 | -0.554 | 117 | 79.4 | inactive |
| DCTN1 (GeneID 1639) | SID164361172 | -0.288 | 49.9 | 40.9 | inactive |
| DCTN1 (GeneID 1639) | SID164361173 | -0.0926 | 91.5 | 85.9 | inactive |
| DCTN1 (GeneID 1639) | SID164361178 | 0.836 | 44.4 | 79.3 | inactive |
| DCTN1 (GeneID 1639) | SID164361179 | 0.309 | 22.5 | 27.9 | inactive |

Look-ups from above.
AMMECR1 (GeneID 9949) [SID164407647], log2 vehicle/camptothecin viability = 0.451
For “Outcome”, ALOX5 (GeneID 240) [SID164353083] reads inactive
DOT1L (GeneID 84444) [SID164544943], viability without drug (% of control) = 85.1
Entry of CRAT (GeneID 1384) [SID164359658] under “viability with camptothecin (% of control)”: 117
KIF13A (GeneID 63971) [SID164500521], viability without drug (% of control) = 89.3
Under “viability with camptothecin (% of control)”, ANGPT2 (GeneID 285) [SID164353349] shows 114
